Reference: publication doi:10.1101/2023.01.30.525655
Results are given in words; binding and its absence hold for the method and conditions named. Sequences can lack the tags named with a protein.

Amino acid sequences for entries named in this document (tags omitted). Residues count along the entry.
UniProt P02769, residues 25-607: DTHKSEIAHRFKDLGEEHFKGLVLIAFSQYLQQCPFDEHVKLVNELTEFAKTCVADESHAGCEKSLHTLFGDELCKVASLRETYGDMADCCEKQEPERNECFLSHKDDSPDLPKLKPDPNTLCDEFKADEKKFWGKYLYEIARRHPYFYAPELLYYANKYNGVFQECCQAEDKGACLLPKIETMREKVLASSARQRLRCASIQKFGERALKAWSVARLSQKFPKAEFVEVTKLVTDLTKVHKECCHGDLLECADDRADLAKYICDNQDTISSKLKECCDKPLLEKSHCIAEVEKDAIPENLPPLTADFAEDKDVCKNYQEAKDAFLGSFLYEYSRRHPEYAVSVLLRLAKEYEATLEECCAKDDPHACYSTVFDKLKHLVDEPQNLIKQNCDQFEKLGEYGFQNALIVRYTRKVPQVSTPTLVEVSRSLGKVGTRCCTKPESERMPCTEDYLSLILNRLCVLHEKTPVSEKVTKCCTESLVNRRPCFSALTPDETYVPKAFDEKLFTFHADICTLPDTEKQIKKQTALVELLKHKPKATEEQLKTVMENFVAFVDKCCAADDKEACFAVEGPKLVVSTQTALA

Molecular target: T1, RED-NHS-MIF-6xHis (human MIF-6xHis labelled with the RED-NHS dye) (human) (UniProt P14174)
T1 sequence (chain, RED-NHS dye (chemically labeled)): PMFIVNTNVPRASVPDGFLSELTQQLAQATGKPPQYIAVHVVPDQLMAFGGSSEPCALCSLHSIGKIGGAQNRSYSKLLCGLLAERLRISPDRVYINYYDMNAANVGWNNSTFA
Experiment: MST

With “bovine serum albumin (BSA) (from UniProt P02769 25-607)” the binding was “no binding”.
